Taken from: PubChem BioAssay AID1259308 (NCATS, 2017)
In all, the deposit lists about 59,000 reagents; shown is an unselected part. About 1,510 of them (2.6%) count as active. 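Calls use total luciferase alone and ignore viability, so some active siRNAs may act by altering cell number.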 Entries without a mark were called inactive. Reagents against one gene are numbered here. No sequences are given here.

Assay: 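Genes whose loss raises luciferase production in HEK293 cells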 (primary screen)
System: human HEK293 embryonic kidney cells stably expressing firefly luciferase (HEK-CMV-Luc2-Hygro)
Reagent: single siRNA against human genes, 0.8 pmol siRNA per well
Time to read-out: 72 h
Read-out: 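Luciferase light (ONE-Glo) measured on one replicate plate set and viability (CellTiter-Glo) on the other, scaled to a negative control siRNA, with robust z-scores and luciferase per cell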
Scale: total luciferase, z-score and total luciferase, % of control: higher = more reporter protein produced; luciferase per cell, z-score: higher = more reporter output per viable cell; viable cells, % of control: higher = more viable cells
Rule for the call: 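Active when the median/MAD z-score for overall luciferase is greater than 3; a gene was taken forward for validation with new siRNAs if at least two of its three siRNAs passed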
Meaning of the calls: active = raised luciferase; inactive = no rise

| Gene | reagent | total luciferase, z-score | total luciferase, % of control | luciferase per cell, z-score | viable cells, % of control |
| --- | --- | --- | --- | --- | --- |
| TPGS2 | 1 | -0.361 | 74.7 | -0.53 | 96 |
| TPGS2 | 2 | -1.11 | 59.7 | -1.23 | 92.3 |
| TPGS2 | 3 | 0.36 | 89.1 | -0.114 | 103 |
| IL7R | 1 | -0.324 | 75.4 | -0.322 | 91.8 |
| IL7R | 2 | -1.43 | 53.5 | -1.36 | 85.5 |
| IL7R | 3 | 1.66 | 115 | 1.58 | 84.6 |
| PON2 | 1 | 1.03 | 102 | 0.337 | 105 |
| PON2 | 2 | -0.171 | 78.5 | -0.614 | 103 |
| PON2 | 3 | -0.865 | 64.7 | -0.701 | 86.9 |
| ROMO1 | 1 | 2.61 | 134 | 3.26 | 63.4 |
| ROMO1 | 2 | 3.85 (active) | 159 | 2.13 | 101 |
| ROMO1 | 3 | -1.72 | 47.6 | -1.9 | 87.6 |
| NR5A1 | 1 | 1.86 | 119 | 1.3 | 94.4 |
| NR5A1 | 2 | 0.693 | 95.7 | 1.24 | 77.1 |
| NR5A1 | 3 | -2.05 | 41 | -1.32 | 64.9 |
| GLT8D2 | 1 | -0.268 | 76.6 | -0.735 | 104 |
| GLT8D2 | 2 | 4.67 (active) | 175 | 2.66 | 97 |
| GLT8D2 | 3 | -0.368 | 74.6 | -0.978 | 108 |
| CRY2 | 1 | -0.598 | 70 | -0.734 | 94.9 |
| CRY2 | 2 | -0.616 | 69.6 | -0.783 | 95.6 |
| CRY2 | 3 | 0.82 | 98.2 | 0.844 | 87.9 |
| PPP1R3C | 1 | -0.331 | 75.3 | 1.25 | 60.5 |
| PPP1R3C | 2 | -0.0882 | 80.1 | -0.724 | 108 |
| PPP1R3C | 3 | -0.975 | 62.5 | -1.51 | 104 |

Copied from the list:
ROMO1 #3, total luciferase, z-score = -1.72
Result for PON2 #3 in “viable cells, % of control”: 86.9
